# Reference: US20230189803A1, “COMPOSITIONS CONTAINING ORGANIC ACIDS AND THEIR ESTERS TO PREVENT MOLD CONTAMINATION IN ANIMAL FEED” (KEMIN INDUSTRIES, INC., priority 2021, published 2023)
# Some results were stated once for a whole list of compounds, not compound by compound.
# Tested on: mold
# Test: CO2 study in soybean meal samples (Example 13)
# Format: cell-based
# Details: 0.08 mol/kg
# Description: Efficacy on soybean meal. FIGS. 18 and 19 show the CO2 production (%) of the untreated soybean meal samples compared to the soybean meal samples treated with ester 1 and propionic acid at a dosage of 0.06 and 0.08 mol/kg, respectively. In the untreated samples, a fast increase in CO2 level was measured within the first days and the CO2 value stayed around 20% during the whole course of the trial. […] Samples treated with ester 1 and propionic acid at a dosage of 0.08 mol/kg were still completely stable after 84 days.
smiles,measurement,value
CCC(=O)O [propionic acid],storage time for which samples stay completely stable (CO2),> 84 days
